Results taken from patent publication US20050215520A1, “Complex of organic medicines and beta-cyclodextrin derivatives and its preparing process” (priority 2002, published 2005).

Test: Critical mole ratio or critical mass ratio of medicines and beta-cyclodextrin derivative (Table 1, examples)
Type: physicochemical
Conditions: beta-cyclodextrin derivative (hydroxide propyl beta-cyclodextrin in the examples) to medicine; complex dissolves exactly in water to stable solution
Description: The critical mole ratio or critical mass ratio in the present invention refers to the mole ratio and mass ratio when complex of organic medicine and beta-cyclodextrin derivatives prepared with the method of this invention is dissolved exactly in water of specified amount to form stable aqueous solution.
The critical value of organic medicine and beta-cyclodextrin derivatives in the present invention, may be determined with the undermentioned unit test method.
All kinds of mole ratio and mass ratio of the medicine and beta-cyclodextrin derivative is made into complex with expanding loose body according to the method of the present invention, then the set water is added into the a variety of compounding ratio of complex, and by observing properties of the solution, the compounding ratio of exactly dissolving in water and with stable property, acts as the critical mole ratio or critical mass ratio of the present invention.
The critical mole ratio and critical mass ratio in the present invention may be determined with the undermentioned saturated solution method. […]
From the results, it is seen that the results two measuring method of critical value are consistent generally. The critical mole ratio orcritical mass ratio of all kinds of medicines applied in the present invention, which measured in the experiments, is indicated in the following table 1: […]

## O=C1OCCN1/N=C/c1ccc([N+](=O)[O-])o1 [furazolidone]
  Critical value Mass ratio: 25
